Test results published in PubChem BioAssay AID1508600 (Functional Genomics Laboratory (NCATS/FGL), 2020).
The campaign covered roughly 53,000 sequences. About 3,700 (7%) were called active.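 How the source made its calls: active means gene knockdowns whose robust z-score for IL-1 alpha signal is at least 2 or at most -2, so actives lie on both sides; inactive means the rest.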 This is one part of the list.

Test: Components of the Cytosolic LPS Sensing Pathway: Gene Identification via Genome-wide siRNA Screen;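 further: robust z of the log signal after scaling to non-targeting control siRNA wells of the plate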
Details: RAW264.7 macrophages, IL-1a HTRF, actives lie on both sides, screened at 100 nM (by protocol), cells primed 5 h with Pam3CSK4 first
Method in brief: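 RAW264.7 mouse macrophages reverse-transfected with single siRNAs (100 nM final) for 48h, primed with Pam3CSK4 for 5 hours, then transfected with LipidA for 24 hour. Supernatant IL-1a read by HTRF; values normalized to negative-control median, log-transformed robust z-scores.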

| Sequence | z-score |
| --- | --- |
| GGAAGAUAGAGCAUAUAUCTT against Tspan13 | inactive: -0.771 |
| GGAACAUGGCUUAAAGUACTT against Mrpl20 | inactive: 0.123 |
| GCUUUAUGGGAGACAAAGGTT against 1700022I11Rik | active: 2.53 |
| GGAACAGAAAACCAUAUAATT against Snx29 | active: -2.54 |
| GGUGACCACUUCAUGUCACTT against Tmem138 | inactive: -1.28 |
| CAAAACCAUCCUUGGAAGUTT against Mrgpra8 | inactive: 1.43 |
| GCUUAUAGAAAACCAGUAATT against Foxd1 | inactive: 0.317 |
| CCUUUUACACUCUAGUAUGTT against Ptger4 | inactive: -0.349 |
| GGCACUGCUAUUAACUACATT against 4933414I15Rik | inactive: -0.906 |
| GUGAAUGUGCCAUUUACUUTT against Smco4 | inactive: -0.178 |
| GGAAAACCAAAGGCUCACCTT against Cyp2c29 | inactive: -0.431 |
| GGAUGAAGAACUUCUCUGGTT against Tmigd1 | inactive: 0.411 |
| GGACUCUUUGGAACUACAATT against Nup98 | inactive: 0.145 |
| GGGCGAGCUCUUCAAGUUUTT against Mapk4 | inactive: 1 |
| GCAUAAAACAGGGAACUUUTT against Fmo9 | inactive: 0.664 |
| GGAUGGACUUCGUCAUGAATT against Cplx2 | inactive: 0.55 |
| GCAUGAUCAAAUUGUAUCUTT against Nde1 | active: -2.21 |
| GCCCUUCACUCUUCCUUUATT against Olfr137 | inactive: 0.254 |
| GGUUUCUACAAACAAGCGUTT against Ibtk | inactive: -0.109 |
| GGCAUCGUUUCAGACUCGCTT against Abcc9 | inactive: 1.11 |
| GGGCUCAUCAUUGUUAUUCTT against Olfr394 | inactive: -1.13 |
| GGAUUAUCAGGAUCUUAUATT against Ate1 | inactive: 0.844 |

Taken from the listing (four entries):

| Sequence | z-score |
| --- | --- |
| GCCCUUCACUCUUCCUUUATT against Olfr137 | inactive: 0.254 |
| GGUUUCUACAAACAAGCGUTT against Ibtk | inactive: -0.109 |
| GGCAUCGUUUCAGACUCGCTT against Abcc9 | inactive: 1.11 |
| GGGCUCAUCAUUGUUAUUCTT against Olfr394 | inactive: -1.13 |

Following part

| Sequence | z-score |
| --- | --- |
| GGACAAGUGAUCUCCAUGGTT against Tmem245 | inactive: -0.74 |
| GGUAAAGUUCACGGUUCCCTT against Fau | inactive: -0.333 |
| GGCUUUCCCAAAGACUUCUTT against Col11a2 | inactive: 0.518 |
| CCUGCCAAUCUGUCUAAGUTT against Haus1 | inactive: -0.121 |
| GCACACCUAGAAACAACCGTT against Mfap3l | inactive: -1.38 |
| GCAUAUCUAUAACAGAGCCTT against Rnase2a | inactive: -1.23 |
| CCUCGUAUUAGAUGAUGCATT against Snrpe | active: -2.79 |
| CCACCUAUCCUAUUGACGATT against Gfus | inactive: -1.12 |
| GCUCUAGGAAUUCCUCACUTT against Bambi | inactive: -1.93 |
| GGGUGUACAUUUUUCUUGUTT against 1700024B05Rik | inactive: -0.662 |
| GCCCGCAUUGCCUUUUGAATT against Rai2 | inactive: -0.846 |
| GCCAAGUCCCGACAAGUAGTT against Rpl26 | inactive: -0.122 |
| GGUCUUUGACAUUUUGAAUTT against Lrrk2 | inactive: -0.295 |
| GCUGUUGCUGGCUAUUCUGTT against Eef2kmt | active: -2.3 |
| GGAAGGAUUGGGUUAUAGATT against Gpank1 | inactive: -0.157 |
| CCCGACCUCAACAUUUGUATT against Bmp2k | inactive: -0.265 |
| GCAAUAGUGAGCACGCCAGTT against Col18a1 | inactive: 0.307 |
| CGAAAUCCAUAGAUUUACUTT against Daw1 | inactive: 0.0506 |
| GUGAAAAAAUACAUGACCCTT against Vmn1r8 | inactive: 0.555 |
| CCGCAUGGAGCAUCUAAUATT against Tuft1 | inactive: 0.04 |
| GCUGCUUGCUGACCUCCUATT against Olfr522 | inactive: 0.358 |
| CCUAUGUCUAACAGAUUUGTT against Lratd2 | inactive: 0.821 |

| Sequence | z-score |
| --- | --- |
| GGCCUACAUCAUUCACUCCTT against Olfr64 | inactive: -0.384 |
| GCUUCACUAAUGUUGGUCUTT against Olfr958 | inactive: 0.33 |
| GGAGUGUAAUCCUCCAUCATT against Ilkap | inactive: 1.74 |
| GGUGUUGAUGUAAAAACACTT against Egf | inactive: 0.0378 |
| GGAUGACUGUAUCUGUACUTT against Ttc3 | inactive: 0.0197 |
| GCAUGUCGUCUGAGAAAGUTT against Pgr | inactive: -0.748 |
| CGGAUAAGCGGAUCUUUGUTT against Cad | inactive: 0.298 |
| GCAUUCGGAAGAGUCAUGUTT against Hnf4g | inactive: -1.26 |
| CGUGGAGUAAGGAGAAUAUTT against Ints7 | inactive: 0.364 |
| GCUUCCUUAUAGAAUUAGATT against Fam91a1 | inactive: 1.08 |
| GGAGACCUCGAUCACAUCATT against Dut | inactive: -0.472 |
| CCUGGAUGGUCAUAUUAAGTT against Lats2 | inactive: -0.117 |
| GCUACAAGUGCCACAGAUATT against Doxl2 | inactive: 1.74 |
| GGUGUUAAUUGUAGCAGGGTT against Olfr920 | inactive: -0.0142 |
| GGCUUCGUGGCAAAGUCAUTT against Sucla2 | inactive: 0.37 |
| GGAUAACCUUCUCUGGAGATT against Fbxw7 | inactive: 0.333 |
| GGAAAACAGGAAAAUCCAUTT against Olfr1076 | inactive: 1.57 |
| CCAUGUAUCAAUGAUGAUGTT against C6 | inactive: -0.398 |
| GCCUCUAAGAAUUCAGGAATT against Timm10b | inactive: 0.28 |
| GGAAAAACUGAGAAAACUUTT against Lyrm1 | active: -2.41 |
| GGUCUUACAGUGGAGAGCATT against Dip2c | inactive: -0.415 |
| GAAGUUGCACUUUGGCCAGTT against Gimap1 | inactive: -0.403 |

| Sequence | z-score |
| --- | --- |
| UGUACUGAUACCUAUUUCATT against Olfr1251 | inactive: -0.899 |
| CGAGGUGGUCAUAAAGAACTT against Gas8 | inactive: 0.909 |
| GCAGUUACCAGAGAUUGUCTT against Gpr107 | inactive: 0.651 |
| CCGUUUAACAGCAUAUCAUTT against Gmnc | inactive: 0.497 |
| GGUACAGUGAUUGUACAACTT against Atrx | inactive: 0.748 |
| GCCAGAUGGAUCGAAAGAUTT against Numa1 | inactive: 0.166 |
| CCAGAAACGAUGCAUUCAUTT against Olfr124 | active: 2 |
| GGUAGAAAAACAAUACCGGTT against Ikbip | inactive: 0.033 |
| GGGUCAAAGCCCAUGGCAATT against Hbb-y | inactive: 0.526 |
| CCAUGUCGUAUGUGAUUCUTT against Hils1 | inactive: -0.528 |
| GGGUCCCAAACAAUAACUUTT against Aebp1 | inactive: 1.7 |
| GGACACAAAUUUCGUGAUGTT against Clec2m | inactive: 1.73 |
| GCAUCGUUACAGGACUUUATT against Enpp1 | inactive: 0.0846 |
| GGUGACACAGUACAAGAAGTT against Rpl36a | inactive: 0.318 |
| CCAUGGGCCUACCAAACAGTT against Celf2 | inactive: -1.86 |
| GGUGGUCCUGGCCUAUGAATT against Tpi1 | inactive: 1.89 |
| GGUCAUUCUAAUGACAAUCTT against Atg14 | inactive: -0.014 |
| CGACGUGGCACAGAAUAUCTT against Ssbp1 | inactive: 0.151 |
| GGACUUAUCUCAUCCAAGATT against Gm9946 | inactive: 0.39 |
| GCAAUAGCAGCAACUCUUATT against Dbpht1 | inactive: -0.369 |
| GGAGGGAGUAUAUUUUCUATT against Mgll | inactive: 0.54 |
| GCAUAUUCUUGCCUUUCUCTT against Vmn1r216 | inactive: -0.0933 |

3 entries from above, with each value named.
CCAUGUCGUAUGUGAUUCUTT against Hils1
  z-score: inactive: -0.528
GGACACAAAUUUCGUGAUGTT against Clec2m
  z-score: inactive: 1.73
GCAUAUUCUUGCCUUUCUCTT against Vmn1r216
  z-score: inactive: -0.0933

Next records follow:

| Sequence | z-score |
| --- | --- |
| CCAAGCGAAUGUCAAAAUATT against Fam163a | inactive: 0.66 |
| CGUACAACACGGAAACCUATT against Paqr5 | inactive: -0.448 |
| GGCACCUAACAAAUUAGUCTT against Spopl | inactive: -0.95 |
| CGGACAGUUAUUAUGCAUATT against Sdcbp | inactive: 1.55 |
| GCCUAGCUGACAUUAAAGGTT against Susd3 | inactive: -1.3 |
| CCUGGAAGUUUUGAGACACTT against Mllt11 | inactive: 1.59 |
| GUUGUCCAUAUCAUGUUUGTT against Olfr569 | inactive: 1.28 |
| CCGACAUAUUUGUAGCUGGTT against Cyp2c55 | inactive: 1.72 |
| GGGCAUUGUCCGAAUGAAUTT against 4930433N12Rik | inactive: -0.898 |
| GGCUUGCUAAAGGAUGGGATT against Coq8b | inactive: 0.0536 |
| GGUACAUGUCACUGUGGCATT against Itgbl1 | inactive: -0.96 |
| GGAUGUGACGCACACAUGUTT against Cdip1 | inactive: 1.11 |
| CGCAUCACCCAGUACAUCUTT against Pacs2 | inactive: 1.31 |
| GGAUGUCACAUGACAGUUUTT against Tmprss4 | inactive: 0.563 |
| CGAGCUAUAUCCCAUGGAGTT against Penk | inactive: 0.0585 |
| GGGAAAGACCAUGUUUGUATT against Ttbk2 | inactive: 0.493 |
| CCUUCGGCAACUUUCUAUUTT against Med30 | inactive: -1.31 |
| GGACACUGUGGAUAAUGACTT against 1810009J06Rik | inactive: -1.84 |
| GGAGACAAUCUGGAUAAGCTT against 2810032G03Rik | inactive: -0.682 |
